Results are given in words; binding and its absence hold for the method and conditions named. In cells and extracts the contact can be indirect. Some results given as binding are weak or reduced against the parent protein; the word gives no strength. Values belong to the molecule of their own block, whether it stands above or below them.
Molecular target: T1, Netrin-G1 (NTNG1) (human (endogenous in SKOV3)) (UniProt Q9Y2I2)
T1 sequence: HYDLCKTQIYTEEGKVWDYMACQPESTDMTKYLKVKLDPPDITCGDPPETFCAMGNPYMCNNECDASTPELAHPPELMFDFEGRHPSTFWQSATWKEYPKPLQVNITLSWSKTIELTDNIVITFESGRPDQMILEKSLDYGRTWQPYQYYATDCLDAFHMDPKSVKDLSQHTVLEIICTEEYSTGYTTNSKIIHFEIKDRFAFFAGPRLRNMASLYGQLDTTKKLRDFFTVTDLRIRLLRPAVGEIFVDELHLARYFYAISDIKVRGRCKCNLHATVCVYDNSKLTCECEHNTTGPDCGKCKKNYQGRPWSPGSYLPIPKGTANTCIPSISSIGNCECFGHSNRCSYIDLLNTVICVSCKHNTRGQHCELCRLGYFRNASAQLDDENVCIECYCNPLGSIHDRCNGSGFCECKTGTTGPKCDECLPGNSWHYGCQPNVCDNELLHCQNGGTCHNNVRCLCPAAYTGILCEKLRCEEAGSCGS
Assay: co-IP; anti-NTNG1 antibody (Santa Cruz) on protein A/G beads; lysates of NTNG1- or NC-transfected SKOV3 cells in RIPA buffer with PMSF; eluted proteins blotted for NTNG1, GAS6, AXL and p-AXL

By UniProt entry, the sequences of proteins in these tests, tags left out. Residues count along the entry.
UniProt P30530, residues 26-894: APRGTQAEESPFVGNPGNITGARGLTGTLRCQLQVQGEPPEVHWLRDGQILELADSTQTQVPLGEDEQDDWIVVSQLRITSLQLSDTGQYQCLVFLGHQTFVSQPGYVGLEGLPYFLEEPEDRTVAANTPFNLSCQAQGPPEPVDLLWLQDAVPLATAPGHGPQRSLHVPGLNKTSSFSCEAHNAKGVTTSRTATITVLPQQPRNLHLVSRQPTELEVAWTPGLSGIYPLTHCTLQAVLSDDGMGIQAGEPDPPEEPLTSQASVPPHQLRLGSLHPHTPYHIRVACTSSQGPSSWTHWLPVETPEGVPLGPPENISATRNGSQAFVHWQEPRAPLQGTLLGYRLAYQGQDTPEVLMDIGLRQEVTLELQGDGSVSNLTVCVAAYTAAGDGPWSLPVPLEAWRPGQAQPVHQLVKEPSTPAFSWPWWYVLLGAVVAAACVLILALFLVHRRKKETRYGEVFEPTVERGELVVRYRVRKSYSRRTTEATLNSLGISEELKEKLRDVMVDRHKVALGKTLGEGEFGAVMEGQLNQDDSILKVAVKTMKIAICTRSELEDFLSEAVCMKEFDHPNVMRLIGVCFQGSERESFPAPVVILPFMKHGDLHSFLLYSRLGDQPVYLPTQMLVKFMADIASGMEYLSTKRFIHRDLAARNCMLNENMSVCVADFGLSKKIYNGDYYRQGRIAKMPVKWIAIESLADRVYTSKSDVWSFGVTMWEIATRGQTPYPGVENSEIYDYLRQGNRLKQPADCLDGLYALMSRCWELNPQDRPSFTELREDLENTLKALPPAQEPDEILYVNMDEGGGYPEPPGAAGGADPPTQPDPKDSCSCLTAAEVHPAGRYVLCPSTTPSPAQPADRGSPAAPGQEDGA

binding: binds
Molecule: phosphorylated AXL (p-AXL) (from UniProt P30530 26-894) (receptor)

binding: binds
Molecule: receptor tyrosine kinase AXL (from UniProt P30530 26-894)

binding: binds
B1: growth arrest-specific 6 (GAS6) (ligand, UniProt Q14393 31-678)
chain: ALLPAREATQFLRPRQRRAFQVFEEAKQGHLERECVEELCSREEAREVFENDPETDYFYPRYLDCINKYGSPYTKNSGFATCVQNLPDQCTPNPCDRKGTQACQDLMGNFFCLCKAGWGGRLCDKDVNECSQENGGCLQICHNKPGSFHCSCHSGFELSSDGRTCQDIDECADSEACGEARCKNLPGSYSCLCDEGFAYSSQEKACRDVDECLQGRCEQVCVNSPGSYTCHCDGRGGLKLSQDMDTCEDILPCVPFSVAKSVKSLYLGRMFSGTPVIRLRFKRLQPTRLVAEFDFRTFDPEGILLFAGGHQDSTWIVLALRAGRLELQLRYNGVGRVTSSGPVINHGMWQTISVEELARNLVIKVNRDAVMKIAVAGDLFQPERGLYHLNLTVGGIPFHEKDLVQPINPRLDGCMRSWNWLNGEDTTIQETVKVNTRMQCFSVTERGSFYPGSGFAFYSLDYMRTPLDVGTESTWEVEVVAHIRPAADTGVLFALWAPDLRAVPLSVALVDYHSTKKLKKQLVVLAVEHTALALMEIKVCDGQEHVVTVSLRDGEATLEVDGTRGQSEVSAAQLQERLAVLERHLRSPVLTFAGGLPDVPVTSAPVTAFYRGCMTLEVNRRLLDLDEAAYKHSDITAHSCPPVEPAAA
